Results taken from patent US20080112949A1.
Results are given in words; binding and its absence hold for the method and conditions named. Some binding calls cover weakened binding; strength is not graded here.

Experiments:
human CD4 (human) = human CD4 (human) (UniProt P01730); experiment: cross-reactivity screen of primate species; format not described
[1] = biological target: chimpanzee CD4 (chimpanzee) (UniProt P16004); experiment: as above

binding (human CD4 (human)): binds
binding [1]: binds
B1: TRX1 humanized anti-CD4 antibody (aglycosyl IgG1, Asn to Ala at position 297 of the heavy chain constant region) (antibody, V domains shown)
VH: QVQLVQSGAEVKKPGASVKVSCKASGYTFTAYVISWVRQAPGQGLEWMGEIYPGSGSSYYNEKFKGRVTMTRDTSTSTVYMELSSLRSEDTAVYYCARSGDGSRFVYWGQGTLVTVSS
VL: DIVMTQSPDSLAVSLGERATINCKASQSVDYDGDSYMNWYQQKPGQPPKLLIYVASNLESGVPDRFSGSGSGTDFTLTISSLQAEDVAVYYCQQSLQDPPTFGGGTKVEIKR
